# Values from PubChem BioAssay AID1259308 (NCATS, 2017)
# Screen: 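Genes whose loss raises luciferase production in HEK293 cells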 (primary screen)
# Cell system: human HEK293 embryonic kidney cells stably expressing firefly luciferase (HEK-CMV-Luc2-Hygro)
# Reagents: single siRNA against human genes, 0.8 pmol siRNA per well
# Duration: 72 h
# Read-out: 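Reporter luminescence and viable-cell signal on separate replicate plates, given as percent of non-targeting control and median/MAD z-scores, plus per-cell luciferase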
# Reading the numbers: total luciferase, z-score and total luciferase, % of control: higher = more reporter protein produced
# Call rule: 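An siRNA counts as active if its total luciferase robust z-score exceeds 3; genes with two or more such siRNAs out of three were retested with fresh siRNAs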
# Calls: active = raised luciferase; inactive = no rise
# The whole screen tested about 59,000 reagents; shown is a random part of them. Over the whole deposit, about 1,510 (2.6%) got an active call. 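Calls use total luciferase alone and ignore viability, so some active siRNAs may act by altering cell number.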 Unmarked entries are inactive. The numbers tell different reagents against one gene apart. Not all columns of the deposit are shown.
target,reagent,"total luciferase, z-score","total luciferase, % of control"
IKBKG,1,1.48,111
IKBKG,2,0.436,90.6
IKBKG,3,-1.64,49.2
PCBD1,1,-0.316,75.6
PCBD1,2,1.25,107
PCBD1,3,-1.15,59
FHAD1,1,-0.257,76.8
FHAD1,2,-0.168,78.5
FHAD1,3,0.239,86.6
PTPRD,1,1.23,106
PTPRD,2,0.605,93.9
PTPRD,3,0.853,98.9
CES5AP1,1,0.526,92.3
CES5AP1,2,0.522,92.3
CES5AP1,3,0.819,98.2
L3MBTL1,1,0.756,96.9
L3MBTL1,2,-1.39,54.2
L3MBTL1,3,0.717,96.1
TSSK2,1,0.951,101
TSSK2,2,0.945,101
TSSK2,3,-0.151,78.9
DLD,1,-0.372,74.5
DLD,2,-0.718,67.6
DLD,3,-1.15,59.1
AUH,1,2.85,138
AUH,2,-0.59,70.1
AUH,3,-0.65,69
KIF20A,1,1.68,115
KIF20A,2,0.693,95.7
KIF20A,3,2.14,124
S100P,1,-0.311,75.7
S100P,2,3.56 (active),153
S100P,3,-0.29,76.1
SNAPC5,1,1.34,109
SNAPC5,2,2.98,141
SNAPC5,3,2.32,128
ZNF195,1,-0.301,75.9
ZNF195,2,0.832,98.4
ZNF195,3,7.87 (active),238
RHOB,1,-2.03,41.4
RHOB,2,0.55,92.8
RHOB,3,-0.132,79.3
RPL21P62,1,-1.34,55.2
RPL21P62,2,-3.27,16.8
RPL21P62,3,-2.88,24.6

Hits, among the entries above:
target,reagent,"total luciferase, z-score","total luciferase, % of control"
S100P,2,3.56 (active),153
ZNF195,3,7.87 (active),238

The list goes on.
target,reagent,"total luciferase, z-score","total luciferase, % of control"
VPS9D1,1,-0.601,69.9
VPS9D1,2,0.407,90
VPS9D1,3,0.388,89.6
BCAS2,1,0.802,97.8
BCAS2,2,1.18,105
BCAS2,3,2,122
ZC3H6,1,-0.961,62.8
ZC3H6,2,-0.143,79
ZC3H6,3,2.14,124
ZMIZ1,1,0.0107,82.1
ZMIZ1,2,-0.491,72.1
ZMIZ1,3,-0.224,77.4
CYP27C1,1,0.0979,83.8
CYP27C1,2,0.201,85.9
CYP27C1,3,-0.702,67.9
CDC50A,1,-0.176,78.4
CDC50A,2,-0.369,74.6
CDC50A,3,0.687,95.5
CTRB1,1,0.172,85.3
CTRB1,2,3.33 (active),148
CTRB1,3,0.95,101
TCEAL5,1,-0.491,72.1
TCEAL5,2,3.02 (active),142
TCEAL5,3,-0.235,77.2
GNE,1,0.444,90.7
GNE,2,-0.598,70
GNE,3,-0.86,64.8
NXNL1,1,-0.68,68.4
NXNL1,2,5.76 (active),196
NXNL1,3,0.56,93
